From ChEMBL document CHEMBL3988442, “University of Dundee, Small-Polar-MMV Screening Library” (2021).

Chains of the proteins cited; added tags and fusions are not shown.
UniProt E9BF75, entry or part of it: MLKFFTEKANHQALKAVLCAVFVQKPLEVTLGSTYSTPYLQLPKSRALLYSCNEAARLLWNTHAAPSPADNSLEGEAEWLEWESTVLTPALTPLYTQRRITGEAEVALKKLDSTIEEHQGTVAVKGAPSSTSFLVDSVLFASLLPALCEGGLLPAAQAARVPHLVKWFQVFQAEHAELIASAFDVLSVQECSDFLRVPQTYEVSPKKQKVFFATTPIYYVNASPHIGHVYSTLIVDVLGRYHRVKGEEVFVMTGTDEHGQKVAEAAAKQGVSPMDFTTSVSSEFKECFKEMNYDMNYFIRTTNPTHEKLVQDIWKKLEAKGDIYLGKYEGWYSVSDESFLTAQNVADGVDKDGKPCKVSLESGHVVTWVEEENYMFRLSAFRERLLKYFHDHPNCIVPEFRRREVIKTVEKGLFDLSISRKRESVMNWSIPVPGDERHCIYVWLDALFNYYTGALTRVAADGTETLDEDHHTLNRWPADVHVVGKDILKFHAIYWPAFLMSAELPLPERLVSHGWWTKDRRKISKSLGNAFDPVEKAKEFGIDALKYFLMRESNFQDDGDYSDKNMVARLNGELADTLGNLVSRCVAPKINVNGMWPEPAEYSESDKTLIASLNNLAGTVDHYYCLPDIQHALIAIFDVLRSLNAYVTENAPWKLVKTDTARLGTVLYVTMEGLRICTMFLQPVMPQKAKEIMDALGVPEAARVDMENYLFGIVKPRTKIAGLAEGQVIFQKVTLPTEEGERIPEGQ

LdMetRS: 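Methionyl-tRNA synthetase (putative), Leishmania donovani (UniProt E9BF75). Primary screen of methionyl-tRNA synthetase; the read-out is not stated. The test concentration is not given. The values are filed as inhibition. About 68,000 compounds were tested under these conditions; 0.035% (about 24) showed 50% or more at least once.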
Mtb heat-shock: 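Assay on Mycobacterium tuberculosis, filed only as a heat shock assay from Cornell; the read-out is not stated. The concentration is filed as 10 mM, unlikely as a test dose, so the dose is not known. The record gives no direction; compounds that gave an IC50 in retests scored well above the rest, so higher reads as stronger inhibition. Size under these conditions: about 69,000 compounds, about 930 of them at 50% or above in at least one test.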

Results are percentages, as filed.
The record does not define 0% and 100%; most values in the screen are far below 50% and negative numbers occur (in some assays of this library far below -100).
The compounds are a random part of those screened.
A dash means the value is not listed here; it may have been measured.

* CC(Cn1cncn1)NCc1csc2c1CCCC2 (configuration not stated) | LdMetRS: 13.17%; Mtb heat-shock: -13.89%
* [H][C@@]12CO[C@@H](CNS(C)(=O)=O)[C@]1([H])CCN(C(=O)c1ccccc1)C2 | Mtb heat-shock: 3.699%
* COc1ccc2c(c1)nc1n2[C@@H](CNCc2ccccc2)COC1 | LdMetRS: 5.495%; Mtb heat-shock: -26.64%
* COc1cccc([C@@H]2N[C@H](c3nccs3)Cc3ccsc32)c1OC | LdMetRS: 17.19%; Mtb heat-shock: 50.14%
* O=S(=O)(c1ccc(F)c(F)c1)N1CCCC(c2nccs2)C1 (configuration not stated) | LdMetRS: 5.788%; Mtb heat-shock: -15.66%
* Cc1[nH]ncc1C(C)NCc1cccnc1 (configuration not stated) | LdMetRS: 14.58%; Mtb heat-shock: 12.42%
* CC(NC(=O)c1ccc2c(c1)COC2)c1cccc(N2CCOC2=O)c1 (configuration not stated) | LdMetRS: 15.33%; Mtb heat-shock: 2.117%
* O=C(O)C(F)(F)F.[H][C@]12CC[C@@]3(N=C(CC)N(CC)C3=O)[C@@]1([H])CN(Cc1ccccc1F)C2 | Mtb heat-shock: -3.603%
* c1cncc(-c2ccc3c(c2)C2(CC3)CCN(c3nncs3)CC2)c1 | LdMetRS: 19.5%
* COCC1CN(Cc2cccc(C#N)c2)Cc2nccn2C1 (configuration not stated) | LdMetRS: 17.18%; Mtb heat-shock: -38.41%
* CCc1noc(CC)c1CNC(=O)Nc1cccc([S+](C)[O-])c1 (configuration not stated) | LdMetRS: 9.116%; Mtb heat-shock: 1.406%
* CS(=O)(=O)Cc1cc(F)ccc1NCc1nnsc1Cl | LdMetRS: 2.957%; Mtb heat-shock: -41.19%
* CCS(=O)(=O)NC[C@]12COC[C@H]1CN(Cc1cc(C)on1)C2 | LdMetRS: 11.11%
* O=C(C1CCC1)N1CCC(c2ncc3c(n2)CCNC3)CC1 | LdMetRS: 29.77%; Mtb heat-shock: 45.11%
* CC(C)Cc1noc(CN2CCCC2c2noc(C3CC3)n2)n1 (configuration not stated) | LdMetRS: 15.03%; Mtb heat-shock: -5.045%
* CC(C)c1ccc(OCCC(=O)N(C)C)cc1 | LdMetRS: -2.419%; Mtb heat-shock: 2.379%
* Cc1ccsc1CN1CCn2c(COc3cccnc3)cnc2C1C (configuration not stated) | LdMetRS: 22.29%
* CCN1CC(Oc2ccc(Cl)cc2)=NC(SCC(=O)c2ccccc2)=N1 | LdMetRS: 6.015%; Mtb heat-shock: 13.82%
* COc1ccc2nc(CNC(=O)c3cc(C(C)C)no3)[nH]c2c1 | LdMetRS: -3.559%; Mtb heat-shock: 8.85%
* CN(C)c1ccc(C(=O)N2CCN(C(=O)N3CCCCC3)CC2)nn1 | LdMetRS: 6.073%; Mtb heat-shock: -33.23%
* Cc1cccc(CN2CCC3(CCCN(C(=O)CN(C)C)C3)C2=O)n1 (configuration not stated) | LdMetRS: 14.89%; Mtb heat-shock: 4.877%
* Cc1ncsc1CN1CCN(C)C2(CCC(=O)N(CCO)CC2)C1 (configuration not stated) | LdMetRS: 10.56%; Mtb heat-shock: 7.355%
* COc1ccc(N2CCCC3(C2)CN(c2cccnc2)CCO3)cc1 (configuration not stated) | LdMetRS: 21.9%
* N#Cc1ccc(Oc2cc(F)c(CN3CCCC3)c(F)c2)nc1 | LdMetRS: 15.86%; Mtb heat-shock: 3.186%
* Cc1cc(CC(=O)N2CCN(C)[C@@H]3CS(=O)(=O)C[C@@H]32)ccc1F | LdMetRS: 12.36%
* Cc1cnc(N2CCN(C)c3ncccc3C2)nc1.O=C(O)C(F)(F)F | Mtb heat-shock: -22.87%
* CC(C)n1cnnc1CN(C)C(=O)c1ccccc1N1CCOCC1 | LdMetRS: 5.625%; Mtb heat-shock: -24.85%
* NC(=O)c1csc(N2C[C@@H](CN3CCCCC3)[C@@H](CO)C2)n1 | LdMetRS: 19.68%; Mtb heat-shock: 10.18%

Once more, the final 3:

structure	LdMetRS	Mtb heat-shock
Cc1cnc(N2CCN(C)c3ncccc3C2)nc1.O=C(O)C(F)(F)F	-	-22.87
CC(C)n1cnnc1CN(C)C(=O)c1ccccc1N1CCOCC1	5.625	-24.85
NC(=O)c1csc(N2C[C@@H](CN3CCCCC3)[C@@H](CO)C2)n1	19.68	10.18